## Microarray screen: hit calls

Calls as published in the ROBIN set (doi:10.1002/anie.202211358).

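Compounds were printed on reactive glass slides in duplicate spots, a dye-labelled oligonucleotide was laid over them, and the fluorescence left after washing was read. For the PreQ1, TPP and SAM-II riboswitches the laboratory earlier reported (doi:10.1038/s41467-019-09493-3) 1 µM RNA, 2 h, and a rule that included a mean Z-score above 3 (spot signal-to-noise against the whole library), a score well above that on a control array, and duplicate spots agreeing (coefficient of variation under 100). The data file gives only the calls; its cut-offs may differ, and compounds hitting several targets are kept. These are primary screening calls, not affinities; a compound without a hit may have attached poorly or may still bind in solution.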 Key: hit = hit, no hit = tested without a hit. Compounds were drawn at random from those tested, without regard to their results. A dash means that no call is listed here.

Targets, with sequences 5′ to 3′:
T1: SAM-II riboswitch RNA pseudoknot, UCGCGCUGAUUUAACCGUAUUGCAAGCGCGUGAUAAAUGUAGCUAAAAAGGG. Hit rate about 1% of about 21,000 compounds.
T2: TPP riboswitch RNA three-way junction, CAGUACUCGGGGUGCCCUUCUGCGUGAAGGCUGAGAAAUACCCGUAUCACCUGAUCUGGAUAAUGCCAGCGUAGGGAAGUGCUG. Hit rate about 0.7% of about 24,000 compounds.
T3: PreQ1 riboswitch RNA pseudoknot, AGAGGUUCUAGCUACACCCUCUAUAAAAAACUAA. From B. subtilis. Hit rate about 0.7% of about 24,000 compounds.

| compound | T1 | T2 | T3 |
|---|---|---|---|
| `Cn1c(-c2ccccc2)cnc1NCc1cccc(O)c1` | no hit | no hit | no hit |
| `CCOc1ccc(-c2noc(-c3nnn(-c4ccccc4OCC)c3N)n2)cc1` | - | no hit | no hit |
| `CN(C(=O)Cn1c(CO)nc2ccccc21)c1ccccc1` | no hit | no hit | no hit |
| `CC1=C(C(=O)OCc2ccccc2)C2(C(=O)Nc3ccccc32)C(C#N)=C(N)O1` (configuration not stated) | no hit | no hit | no hit |
| `O=C1C(Nc2ccc(F)c(F)c2)=C(N2CCCC2)C(=O)c2ccccc21` | no hit | no hit | no hit |
| `COCCOC(=O)C1=C(N)OC2=C(C(=O)CCC2)C1c1cccnc1` (configuration not stated) | no hit | no hit | no hit |
| `CC(O)CNC(=O)c1c(O)nc2ccccn2c1=O` (configuration not stated) | no hit | no hit | no hit |
| `CC[C@@]1(O)CCN(C(=O)CCCn2nc(C)cc2C)C[C@H]1O` | no hit | no hit | no hit |
| `CCC1CCCCN1S(=O)(=O)c1ccc(NC2=NS(=O)(=O)c3ccccc32)cc1` (configuration not stated) | no hit | no hit | no hit |
| `CCOc1ccccc1[C@H]1C[C@@H](c2ccc(Cl)cc2)Nc2nc(N)nn21` | no hit | no hit | no hit |
| `COc1c(C)cc(C(=O)N2C[C@H]3C[C@H](O)[C@@H](O)C[C@H]3C2)cc1C` | no hit | no hit | no hit |
| `CCCc1nc2nc(C)cc(Nc3ccc(Br)c(C)c3)n2n1` | no hit | no hit | no hit |
| `CCc1csc(CNCc2nc(-c3ccccc3C)no2)n1` | no hit | no hit | no hit |
| `CCc1ccc(CNC(=O)c2nn(-c3ccc(Cl)cc3)nc2CO)cc1` | - | no hit | no hit |
| `Cc1ccc(-c2cccc(CN3C[C@H](N)C[C@H]3C(=O)NC(C)C)c2)o1` | no hit | no hit | no hit |
| `N[C@@H](C(=O)N[C@@H]1C(=O)N2C(C(=O)O)=C(Cl)CS[C@H]12)c1ccccc1` | no hit | no hit | no hit |
| `CSCC(=O)N1CCC2(CCN(CCc3ccccc3)CC2)C(CO)C1` (configuration not stated) | no hit | no hit | no hit |
| `CC(=NNC(=O)CNc1cccc2ccccc12)c1ccc(Br)cc1` | no hit | no hit | no hit |
| `C=CCc1cc(CNCCO)cc(OC)c1OCC` | no hit | no hit | no hit |
| `CCOC(=O)C1=C(C)NC(=S)NC1c1cccc(O)c1` (configuration not stated) | no hit | no hit | no hit |
| `CC(C)NC(=O)c1ccc(-c2cccc(N3CCNCC3)c2)s1` | no hit | no hit | no hit |
| `CCCOc1cccc(C2c3c(-c4ccccc4O)n[nH]c3C(=O)N2CCCO)c1` (configuration not stated) | - | no hit | no hit |
| `Cl.Nc1ncnc2c(C3OC(CO)C(O)C3O)c[nH]c12` (configuration not stated) | no hit | no hit | no hit |
| `CC(=O)Nc1ccc2nc(-c3cn(CCc4csc(N)n4)nn3)ccc2c1` | no hit | no hit | no hit |
| `CN(Cc1c(Cl)ccc(O)c1Cl)[C@H]1COC[C@@H]1O` | no hit | no hit | no hit |
| `O=C1C=C(NCc2cccnc2)C2(CCCCC2)O1` | no hit | no hit | no hit |
| `c1cc(-c2cccc3c2CCNC3)cc(-n2cnnc2)c1` | no hit | no hit | no hit |
| `Cc1ccc2c(c1)Oc1ccccc1N=C2` | no hit | no hit | no hit |
| `CN1CCN(C(=O)c2ccc(Cn3cnnn3)cc2)CC1CCO` (configuration not stated) | no hit | no hit | no hit |
| `COc1ccc(-c2nnc(N)o2)cc1OC` | no hit | no hit | no hit |
| `Nc1cccc2cc(-c3ccccc3)oc12` | no hit | no hit | no hit |
| `Oc1ccc(/N=N/c2ccccc2)c(O)c1/N=N/c1ccccc1` | no hit | no hit | no hit |
| `COc1ccc(-c2noc(Nc3cccc(C(C)=O)c3)n2)cc1OC` | - | no hit | no hit |
| `Cc1sc(CO)c(Sc2ccccc2)c1C(=O)O` | no hit | no hit | no hit |
| `O=C(C1CCCO1)N1CCc2ncnc(N3CCC(O)CC3)c2CC1` (configuration not stated) | no hit | no hit | no hit |
| `CC1=NN(c2ccccc2)C(=S)C1=CNc1cccc(Br)c1` | no hit | no hit | no hit |
| `Cc1cccnc1CN1CCN(C(=O)[C@@]23CNC[C@@H]2CN(C)C3)CC1` | no hit | no hit | no hit |
| `Cc1cc(C)n(CCC(=O)N2C[C@H](O)[C@@H](N3CCCCC3)C2)c(=O)n1` | no hit | no hit | no hit |
| `CN1CCC(CN)(N2CCN(c3ccccc3)CC2)CC1` | no hit | no hit | no hit |
| `COCCCN[C@H]1CS(=O)(=O)C[C@@H]1S(=O)(=O)c1ccccc1` | - | no hit | no hit |
| `O=C(c1ccc(Cn2ccnc2)o1)N1CCOCC(O)C1` (configuration not stated) | no hit | no hit | no hit |
| `Cc1cc(C)c2c(N)c(C(=O)c3ccc4c(c3)OCO4)sc2n1` | no hit | no hit | no hit |
| `C=CCNC(=O)c1sc(N2CCCC2)nc1N` | no hit | no hit | no hit |
| `NCC(=O)Nc1ccc(Cl)cc1C(=O)c1ccc[nH]1` | hit | no hit | no hit |
| `CC(C)c1nc(N2CCC3(CC2)CNC(C(=O)O)C3)no1` (configuration not stated) | no hit | no hit | no hit |
| `Cc1ccc(NC(=O)Cn2nnc(C(=O)Nc3ccc(Br)cc3)c2N)cc1C` | no hit | no hit | no hit |
| `COc1c(C)cc(C(=O)N2CCNC(=O)C2CCO)cc1C` (configuration not stated) | no hit | no hit | no hit |
| `COc1cc2c(cc1-c1cc(C3CCC3)nc(N)c1C#N)OCO2` | no hit | no hit | no hit |
| `CCC1C(c2ccccc2)=NN(CCO)c2nc3c(c(=O)n(C)c(=O)n3C)n21` (configuration not stated) | no hit | no hit | no hit |
| `Cc1ccc(C2C(C#N)=C(N)Oc3cc(C)oc(=O)c32)o1` (configuration not stated) | no hit | no hit | no hit |
| `C#C[C@]1(O)CC[C@@H]2[C@@H]3CCC4=CC(=O)CC[C@@H]4[C@H]3CC[C@@]21CC` | no hit | no hit | no hit |
| `c1ccc2cc(CNCCc3c[nH]c4ccccc34)ccc2c1` | no hit | no hit | no hit |
| `CNCCN1C(=O)CC[C@H]2CN(C(=O)c3ccsc3)CC[C@H]21` | no hit | no hit | no hit |
| `Cc1cc(C)c2c(N)c(C(=O)NCc3ccccc3Cl)sc2n1` | no hit | no hit | no hit |